Source: publication doi:10.1101/2022.09.22.509083
Read-outs that look alike come from different tables or passages of the source. These are yes or no findings as the source states them, for the method shown. For some assays here: Binding seen in cells or lysates may run through a third protein. Some entries that bind do so weakly or less than the wild type. For some assays here: Tags and fused reporters may be left off the sequences shown. Each block holds one molecule with its values, some of them ahead of it.

Chains of the proteins cited; added tags and fusions are not shown. Lines headed by an entry give the natural chain unless they say otherwise; changes in a name come on top. A line that says so, or that is headed by a name, gives the form on record, which may keep a tag or linker. Residues count along the entry.
UniProt P32597: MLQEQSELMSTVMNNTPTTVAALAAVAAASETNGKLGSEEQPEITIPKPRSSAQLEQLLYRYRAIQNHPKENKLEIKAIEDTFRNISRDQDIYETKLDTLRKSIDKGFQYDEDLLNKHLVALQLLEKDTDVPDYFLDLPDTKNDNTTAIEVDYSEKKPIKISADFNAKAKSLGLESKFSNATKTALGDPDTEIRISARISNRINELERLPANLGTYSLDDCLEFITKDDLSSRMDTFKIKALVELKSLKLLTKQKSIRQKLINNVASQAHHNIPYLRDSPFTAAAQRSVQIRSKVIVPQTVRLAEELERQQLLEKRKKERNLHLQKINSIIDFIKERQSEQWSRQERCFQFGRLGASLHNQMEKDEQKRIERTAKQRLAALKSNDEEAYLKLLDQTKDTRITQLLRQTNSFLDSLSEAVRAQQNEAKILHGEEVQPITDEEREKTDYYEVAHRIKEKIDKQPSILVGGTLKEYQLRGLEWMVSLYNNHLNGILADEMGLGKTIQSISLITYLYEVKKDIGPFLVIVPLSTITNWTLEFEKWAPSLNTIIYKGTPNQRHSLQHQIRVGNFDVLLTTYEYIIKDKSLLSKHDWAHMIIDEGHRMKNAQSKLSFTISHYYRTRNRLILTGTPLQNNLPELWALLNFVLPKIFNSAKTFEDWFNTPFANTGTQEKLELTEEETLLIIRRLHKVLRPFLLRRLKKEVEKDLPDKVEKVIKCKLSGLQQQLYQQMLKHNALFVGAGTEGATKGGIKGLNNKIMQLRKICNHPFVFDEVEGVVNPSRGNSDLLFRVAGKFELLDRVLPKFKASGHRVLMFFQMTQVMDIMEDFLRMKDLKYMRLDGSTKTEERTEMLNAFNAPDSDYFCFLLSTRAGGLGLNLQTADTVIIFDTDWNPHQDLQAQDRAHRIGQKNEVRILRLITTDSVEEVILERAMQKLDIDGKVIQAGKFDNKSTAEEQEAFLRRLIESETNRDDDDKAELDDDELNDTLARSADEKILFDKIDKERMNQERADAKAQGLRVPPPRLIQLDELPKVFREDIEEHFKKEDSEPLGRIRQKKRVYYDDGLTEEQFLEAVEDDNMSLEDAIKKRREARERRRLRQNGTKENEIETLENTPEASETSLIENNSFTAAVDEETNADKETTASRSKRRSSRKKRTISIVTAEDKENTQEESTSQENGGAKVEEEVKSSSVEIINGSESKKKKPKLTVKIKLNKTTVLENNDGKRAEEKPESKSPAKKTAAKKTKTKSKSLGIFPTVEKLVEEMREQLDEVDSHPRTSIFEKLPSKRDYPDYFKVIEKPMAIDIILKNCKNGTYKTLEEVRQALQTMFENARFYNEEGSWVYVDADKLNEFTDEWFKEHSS
UniProt P43609: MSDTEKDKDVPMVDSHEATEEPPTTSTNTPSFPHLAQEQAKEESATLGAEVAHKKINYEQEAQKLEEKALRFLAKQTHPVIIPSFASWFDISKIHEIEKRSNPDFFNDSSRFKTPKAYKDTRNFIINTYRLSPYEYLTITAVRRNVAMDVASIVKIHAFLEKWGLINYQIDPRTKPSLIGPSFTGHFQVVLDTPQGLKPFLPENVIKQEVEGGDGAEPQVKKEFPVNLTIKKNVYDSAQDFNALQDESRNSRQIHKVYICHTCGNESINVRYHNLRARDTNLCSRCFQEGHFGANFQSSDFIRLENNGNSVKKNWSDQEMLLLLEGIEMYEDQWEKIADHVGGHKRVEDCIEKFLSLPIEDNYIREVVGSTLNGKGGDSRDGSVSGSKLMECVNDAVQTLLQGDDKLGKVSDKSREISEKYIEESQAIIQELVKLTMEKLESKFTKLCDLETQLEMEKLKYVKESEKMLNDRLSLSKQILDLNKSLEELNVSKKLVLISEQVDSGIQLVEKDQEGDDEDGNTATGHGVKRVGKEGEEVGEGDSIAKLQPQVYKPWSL
UniProt P47822: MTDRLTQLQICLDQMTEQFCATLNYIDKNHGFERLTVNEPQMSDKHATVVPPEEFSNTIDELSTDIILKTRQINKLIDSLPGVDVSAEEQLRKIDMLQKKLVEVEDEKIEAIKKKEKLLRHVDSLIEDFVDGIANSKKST
UniProt P32569: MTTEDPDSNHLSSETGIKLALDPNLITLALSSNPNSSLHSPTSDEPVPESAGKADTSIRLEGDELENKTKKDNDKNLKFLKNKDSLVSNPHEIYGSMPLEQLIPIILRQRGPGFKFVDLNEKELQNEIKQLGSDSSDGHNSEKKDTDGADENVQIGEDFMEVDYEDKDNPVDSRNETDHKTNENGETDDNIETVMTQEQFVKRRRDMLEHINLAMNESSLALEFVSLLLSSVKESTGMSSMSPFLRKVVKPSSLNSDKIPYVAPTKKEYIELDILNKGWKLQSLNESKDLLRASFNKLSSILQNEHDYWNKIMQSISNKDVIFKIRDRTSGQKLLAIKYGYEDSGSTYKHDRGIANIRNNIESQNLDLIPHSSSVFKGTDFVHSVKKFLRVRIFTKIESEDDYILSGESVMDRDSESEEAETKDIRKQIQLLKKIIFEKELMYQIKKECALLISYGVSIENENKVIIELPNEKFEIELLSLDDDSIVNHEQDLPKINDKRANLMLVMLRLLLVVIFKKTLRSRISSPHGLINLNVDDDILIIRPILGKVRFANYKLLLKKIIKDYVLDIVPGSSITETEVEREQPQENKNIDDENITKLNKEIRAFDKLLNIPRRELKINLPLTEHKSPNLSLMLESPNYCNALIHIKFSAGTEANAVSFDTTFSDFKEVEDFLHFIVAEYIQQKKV
Med17 domain (amino acids 346-687) fused to the Gal4 DNA binding domain (GBD): residues 346-687 of P32569
UniProt P19263: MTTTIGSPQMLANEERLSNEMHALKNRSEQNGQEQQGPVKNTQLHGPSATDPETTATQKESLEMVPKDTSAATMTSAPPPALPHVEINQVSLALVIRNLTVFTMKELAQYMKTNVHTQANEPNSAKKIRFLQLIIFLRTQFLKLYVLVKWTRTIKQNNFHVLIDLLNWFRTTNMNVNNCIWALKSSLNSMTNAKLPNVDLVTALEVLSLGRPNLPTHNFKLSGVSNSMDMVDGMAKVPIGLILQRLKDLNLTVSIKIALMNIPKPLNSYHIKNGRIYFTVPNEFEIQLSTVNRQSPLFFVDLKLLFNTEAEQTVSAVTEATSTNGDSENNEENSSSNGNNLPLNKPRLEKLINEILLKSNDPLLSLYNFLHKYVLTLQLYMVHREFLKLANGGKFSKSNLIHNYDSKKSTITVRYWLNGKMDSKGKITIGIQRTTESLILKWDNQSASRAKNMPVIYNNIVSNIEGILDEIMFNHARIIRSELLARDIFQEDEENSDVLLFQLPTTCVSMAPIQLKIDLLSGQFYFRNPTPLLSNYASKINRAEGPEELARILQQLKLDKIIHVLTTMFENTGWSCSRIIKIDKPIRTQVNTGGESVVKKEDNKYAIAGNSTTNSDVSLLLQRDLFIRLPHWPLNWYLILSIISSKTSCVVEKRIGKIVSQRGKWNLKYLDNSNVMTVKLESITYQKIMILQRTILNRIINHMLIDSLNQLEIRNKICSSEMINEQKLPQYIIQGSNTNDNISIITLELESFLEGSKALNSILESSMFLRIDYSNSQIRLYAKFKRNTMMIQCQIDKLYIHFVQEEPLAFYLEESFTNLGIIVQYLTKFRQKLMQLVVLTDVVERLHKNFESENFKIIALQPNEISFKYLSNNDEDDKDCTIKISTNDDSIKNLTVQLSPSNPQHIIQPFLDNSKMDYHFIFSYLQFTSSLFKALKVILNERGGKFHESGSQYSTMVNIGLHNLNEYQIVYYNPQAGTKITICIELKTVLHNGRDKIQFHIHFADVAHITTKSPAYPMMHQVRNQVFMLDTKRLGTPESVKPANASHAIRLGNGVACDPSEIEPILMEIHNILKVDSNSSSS
UniProt P38781, residues 644-883: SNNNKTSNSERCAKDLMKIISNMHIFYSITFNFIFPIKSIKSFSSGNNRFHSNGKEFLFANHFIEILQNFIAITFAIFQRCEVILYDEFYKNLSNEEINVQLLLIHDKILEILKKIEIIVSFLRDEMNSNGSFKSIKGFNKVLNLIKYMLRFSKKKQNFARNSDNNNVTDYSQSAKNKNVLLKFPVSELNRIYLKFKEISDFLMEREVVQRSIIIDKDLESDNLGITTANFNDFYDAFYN
UniProt Q06639, residues 588-695: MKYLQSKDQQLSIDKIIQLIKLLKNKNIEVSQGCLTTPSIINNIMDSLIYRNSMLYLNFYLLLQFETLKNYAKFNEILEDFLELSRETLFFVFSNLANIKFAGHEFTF

What was measured:
[1] = biological target: Sth1-Myc (S. cerevisiae) (UniProt P32597); experiment: co-IP
[2] = biological target: Rsc8-Myc (S. cerevisiae) (UniProt P43609); experiment: co-IP
[3] = biological target: Med21 Mediator subunit fused to the GBD (S. cerevisiae) (UniProt P47822); experiment: two-hybrid
[4] = biological target: Rsc8 fused to the Gal4 DNA binding domain (GBD) (S. cerevisiae) (UniProt P43609); experiment: two-hybrid
[5] = biological target: Med17 domain (amino acids 346-687) fused to the Gal4 DNA binding domain (GBD) (S. cerevisiae) (UniProt P32569); experiment: two-hybrid
[6] = biological target: Med17 Mediator head module subunit fused to the Gal4 DNA binding domain (GBD) (S. cerevisiae) (UniProt P32569); experiment: two-hybrid
[7] = biological target: Med17 Mediator head module subunit fused to the Gal4 DNA binding domain (GBD) (S. cerevisiae) (UniProt P32569); experiment: two-hybrid; remark: listed apart in the source

binding [1]: binds
binding [2]: binds
Molecule: Med14 subunit of Mediator (from UniProt P19263 1-1082)

binding [3]: binds weakly
Molecule: Rsc30 fragment (amino acids 644-883) (from UniProt P38781 644-883) (domain or fragment)

binding [3]: binds
Molecule: Rsc3 fragment (amino acids 588-695) (from UniProt Q06639 588-695) (domain or fragment)

binding [4]: binds
Molecule: Med17 fused to the Gal4 activation domain (GAD) (from UniProt P32569 1-687)

binding [5]: binds
binding [6]: binds
Molecule: full-length Rsc8 fused to the Gal4 activation domain (GAD) (from UniProt P43609 1-557)

binding [7]: binds
B1: Med22 fused to the Gal4 activation domain (GAD) (protein, UniProt P32570 1-121)
chain: MSNQALYEKLEQTRTILSVKLAELINMTTIADRNDDDEGSFAQENSELAVATTSVMMVNNQTMQLIKNVQDLLILTRSIKEKWLLNQIPVTEHSKVTRFDEKQIEELLDNCIETFVAEKTT
